PubChem BioAssay AID1259308, NCATS, 2017
The whole screen tested about 59,000 reagents; this is an unselected part. In the full data, about 1,510 (2.6%) got an active call. 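Calls use total luciferase alone and ignore viability, so some active siRNAs may act by altering cell number.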 Reagents against one gene are numbered here. Reagent sequences are not shown.

Screen: 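Genes whose loss raises luciferase production in HEK293 cells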 (primary screen)
System: human HEK293 embryonic kidney cells stably expressing firefly luciferase (HEK-CMV-Luc2-Hygro)
Knock-down reagent: single siRNA against human genes, 0.8 pmol siRNA per well
Timing: 72 h
Read-out: 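Luciferase light (ONE-Glo) measured on one replicate plate set and viability (CellTiter-Glo) on the other, scaled to a negative control siRNA, with robust z-scores and luciferase per cell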
Direction: total luciferase, z-score and total luciferase, % of control: higher = more reporter protein produced; luciferase per cell, z-score: higher = more reporter output per viable cell; viable cells, % of control: higher = more viable cells
Rule for the call: 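Active when the median/MAD z-score for overall luciferase is greater than 3; a gene was taken forward for validation with new siRNAs if at least two of its three siRNAs passed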
Meaning of the calls: active = raised luciferase; inactive = no rise

no.	gene	siRNA no.	total luciferase, z-score	total luciferase, % of control	luciferase per cell, z-score	viable cells, % of control	activity call
1	TLCD3B (TLC domain containing 3B)	1	3.01	142	1.59	104	active
2	TLCD3B (TLC domain containing 3B)	2	1.75	117	1.25	93.8	inactive
3	TLCD3B (TLC domain containing 3B)	3	-0.388	74.2	-0.851	104	inactive
4	VXN (vexin)	1	1.92	120	2.06	78	inactive
5	VXN (vexin)	2	2.63	134	2.27	82.5	inactive
6	VXN (vexin)	3	0.0353	82.6	-0.132	95.6	inactive
7	FNTA (farnesyltransferase, CAAX box, subunit alpha)	1	0.396	89.8	-0.324	109	inactive
8	FNTA (farnesyltransferase, CAAX box, subunit alpha)	2	0.881	99.4	0.873	88.3	inactive
9	FNTA (farnesyltransferase, CAAX box, subunit alpha)	3	1.89	119	0.875	106	inactive
10	GDPD4 (glycerophosphodiester phosphodiesterase domain containing 4)	1	0.116	84.2	-0.286	101	inactive
11	GDPD4 (glycerophosphodiester phosphodiesterase domain containing 4)	2	-1.35	55.1	-1.66	95.3	inactive
12	GDPD4 (glycerophosphodiester phosphodiesterase domain containing 4)	3	4.38	169	2.6	95.3	active
13	SNX16 (sorting nexin 16)	1	-0.429	73.4	-0.0772	83.7	inactive
14	SNX16 (sorting nexin 16)	2	-0.0085	81.7	0.0321	90.5	inactive
15	SNX16 (sorting nexin 16)	3	-0.333	75.3	-0.967	108	inactive
16	MRC1 (mannose receptor C-type 1)	1	0.282	87.5	0.665	82.1	inactive
17	MRC1 (mannose receptor C-type 1)	2	1.72	116	0.682	108	inactive
18	MRC1 (mannose receptor C-type 1)	3	1.36	109	1.98	72.3	inactive
19	NEXMIF (neurite extension and migration factor)	1	0.299	87.8	1.02	75.1	inactive
20	NEXMIF (neurite extension and migration factor)	2	-0.547	71	0.0802	77.7	inactive
21	NEXMIF (neurite extension and migration factor)	3	0.464	91.1	0.0549	100	inactive
22	DYM (dymeclin)	1	-1.35	55.1	-1.56	92.9	inactive
23	DYM (dymeclin)	2	0.749	96.8	0.646	91.2	inactive
24	DYM (dymeclin)	3	0.126	84.4	0.16	90.4	inactive
25	ERICH5 (glutamate rich 5)	1	-1.99	42.3	0.121	45.8	inactive
26	ERICH5 (glutamate rich 5)	2	-0.721	67.5	-0.669	90	inactive
27	ERICH5 (glutamate rich 5)	3	-1.54	51.3	-1.55	86.1	inactive
28	CERS2 (ceramide synthase 2)	1	-0.309	75.7	-0.441	95.1	inactive
29	CERS2 (ceramide synthase 2)	2	-0.0899	80.1	0.109	87	inactive
30	CERS2 (ceramide synthase 2)	3	-1.46	52.9	-0.0723	60.2	inactive
31	RPS15A (ribosomal protein S15a)	1	-2.49	32.3	-2.06	62.2	inactive
32	RPS15A (ribosomal protein S15a)	2	-2.71	27.9	-1.12	41.9	inactive
33	RPS15A (ribosomal protein S15a)	3	-2.46	33	-2.82	77.6	inactive
34	BMP2 (bone morphogenetic protein 2)	1	0.22	86.3	0.773	78.6	inactive
35	BMP2 (bone morphogenetic protein 2)	2	4.01	162	3.93	64.2	active
36	BMP2 (bone morphogenetic protein 2)	3	0.256	87	-0.291	105	inactive

6 entries already listed, arranged by “total luciferase, z-score”, descending:
gene	siRNA no.	total luciferase, z-score	total luciferase, % of control	luciferase per cell, z-score	viable cells, % of control	activity call
VXN (vexin)	2	2.63	134	2.27	82.5	inactive
VXN (vexin)	1	1.92	120	2.06	78	inactive
FNTA (farnesyltransferase, CAAX box, subunit alpha)	3	1.89	119	0.875	106	inactive
FNTA (farnesyltransferase, CAAX box, subunit alpha)	2	0.881	99.4	0.873	88.3	inactive
FNTA (farnesyltransferase, CAAX box, subunit alpha)	1	0.396	89.8	-0.324	109	inactive
VXN (vexin)	3	0.0353	82.6	-0.132	95.6	inactive

Next records:
no.	gene	siRNA no.	total luciferase, z-score	total luciferase, % of control	luciferase per cell, z-score	viable cells, % of control	activity call
37	SPRNP1 (shadow of prion protein pseudogene 1)	1	2.65	135	1.5	101	inactive
38	SPRNP1 (shadow of prion protein pseudogene 1)	2	-0.332	75.3	0.00177	84.1	inactive
39	SPRNP1 (shadow of prion protein pseudogene 1)	3	3.29	147	2.41	87.2	active
40	TAB3 (TGF-beta activated kinase 1 (MAP3K7) binding protein 3)	1	0.243	86.7	-0.0116	97.2	inactive
41	TAB3 (TGF-beta activated kinase 1 (MAP3K7) binding protein 3)	2	0.946	101	0.839	90.2	inactive
42	TAB3 (TGF-beta activated kinase 1 (MAP3K7) binding protein 3)	3	-1.13	59.4	-0.933	84.8	inactive
43	WDR26 (WD repeat domain 26)	1	-0.533	71.3	-0.302	86.3	inactive
44	WDR26 (WD repeat domain 26)	2	0.19	85.7	0.456	84.9	inactive
45	WDR26 (WD repeat domain 26)	3	-0.244	77	0.537	74.7	inactive
46	PLAC1 (placenta associated 1)	1	-1.19	58.1	-1.34	92.3	inactive
47	PLAC1 (placenta associated 1)	2	0.744	96.7	0.895	85.4	inactive
48	PLAC1 (placenta associated 1)	3	0.0966	83.8	0.109	91	inactive
49	H1-9P (H1.9 linker histone, pseudogene)	1	0.319	88.2	0.309	90.9	inactive
50	H1-9P (H1.9 linker histone, pseudogene)	2	2.13	124	1.77	87.1	inactive
51	H1-9P (H1.9 linker histone, pseudogene)	3	-0.116	79.6	-0.0729	90.7	inactive
52	KLF14 (KLF transcription factor 14)	1	0.48	91.4	-0.0372	103	inactive
53	KLF14 (KLF transcription factor 14)	2	-1.7	48	-1.28	75.2	inactive
54	KLF14 (KLF transcription factor 14)	3	-1.29	56.2	-1.33	89	inactive
55	RIOX2 (ribosomal oxygenase 2)	1	0.0355	82.6	0.673	77.3	inactive
56	RIOX2 (ribosomal oxygenase 2)	2	-0.55	70.9	-0.806	98	inactive
57	RIOX2 (ribosomal oxygenase 2)	3	0.852	98.8	-0.115	114	inactive
58	CDH3 (cadherin 3)	1	0.659	95	0.162	102	inactive
59	CDH3 (cadherin 3)	2	-0.347	75	-0.497	95.5	inactive
60	CDH3 (cadherin 3)	3	-0.271	76.5	-0.378	94.4	inactive
61	PELP1 (proline, glutamate and leucine rich protein 1)	1	0.26	87.1	-0.431	109	inactive
62	PELP1 (proline, glutamate and leucine rich protein 1)	2	-0.372	74.5	-0.0503	84.4	inactive
63	PELP1 (proline, glutamate and leucine rich protein 1)	3	-0.8	66	-0.933	94.2	inactive
64	SSR4P1 (signal sequence receptor subunit 4 pseudogene 1)	1	1.49	111	1.36	86.9	inactive
65	SSR4P1 (signal sequence receptor subunit 4 pseudogene 1)	2	0.572	93.3	1.22	75.6	inactive
66	SSR4P1 (signal sequence receptor subunit 4 pseudogene 1)	3	1.32	108	0.863	96.3	inactive
67	SSR4P1 (signal sequence receptor subunit 4 pseudogene 1)	4	-1.21	57.7	-0.664	76.8	inactive
68	SSR4P1 (signal sequence receptor subunit 4 pseudogene 1)	5	-0.86	64.8	-0.803	89.4	inactive
69	SSR4P1 (signal sequence receptor subunit 4 pseudogene 1)	6	-0.453	72.9	-0.352	89.3	inactive
70	MMAB (metabolism of cobalamin associated B)	1	0.11	84.1	0.757	77	inactive
71	MMAB (metabolism of cobalamin associated B)	2	-1.97	42.7	-2.44	90.7	inactive
72	MMAB (metabolism of cobalamin associated B)	3	-0.379	74.4	-0.0298	83.7	inactive
73	NAA15 (N-alpha-acetyltransferase 15, NatA auxiliary subunit)	1	1.79	117	1.33	92.6	inactive
74	NAA15 (N-alpha-acetyltransferase 15, NatA auxiliary subunit)	2	-0.922	63.6	-0.306	77	inactive
75	NAA15 (N-alpha-acetyltransferase 15, NatA auxiliary subunit)	3	-2.44	33.4	-2.18	66.2	inactive
